In patent US20250000818A1, “NEW SYNERGISTIC COMBINATIONS BASED ON FENM AND AN ACETYLCHOLINESTERASE INHIBITOR” (REST Therapeutics, priority 2021, published 2025):
Where a name gives a salt, the structure may show the parent alone.

Experiments:
[1] = tested on: mice intoxicated with Aβ25-35 oligomers; experiment: Y-labyrinth spontaneous alternation test (YMT), short-term spatial working memory, Aβ25-35 oligomer ICV intoxication model; format: in vivo, male Swiss OF-1 mice
[2] = tested on: mice intoxicated with Aβ25-35 oligomers; experiment: Passive avoidance test (PAT), long-term contextual memory, Aβ25-35 oligomer ICV intoxication model; format: in vivo, male Swiss OF-1 mice

COc1cc2c(cc1OC)C(=O)C(CC1CCN(Cc3ccccc3)CC1)C2 (stereo not shown) [DPZ, donepezil hydrochloride]
effect on percentage of alternation of intoxicated mice ([1]; 0.01 mg/kg): no improvement was observed | effect on percentage of alternation of intoxicated mice ([1]; 0.03 mg/kg): does not confer a statistically significant improvement | PP (%) percentage protection ([1]; 0.03 mg/kg IP): 10.6 ± 34.0% | effect on percentage of alternation of intoxicated mice ([1]; 0.1 mg/kg): confers an improvement in mnesic symptoms | PP (%) percentage protection ([1]; 0.1 mg/kg IP): 46.9 ± 26.4% | PP (%) percentage protection ([1]; 0.3 mg/kg IP): 58.9 ± 33.7^• % | PP (%) percentage protection ([2]; 0.03 mg/kg IP): 19.7 ± 17.2% | PP (%) percentage protection ([2]; 0.1 mg/kg IP): 19.6 ± 21.6% | PP (%) percentage protection ([2]; 0.3 mg/kg IP): 42.2 ± 21.4% | effect on passive avoidance performance (latency) of intoxicated mice ([2]; 1 mg/kg, highest dose tested): effective in counteracting the amnesic effects
